Measured values from publication doi:10.1101/2022.05.07.491033.
No constants are given. Whether binding was seen depends on the method and setting. In cells and extracts the contact can be indirect. Some entries that bind do so weakly or less than the wild type.

By UniProt entry, the sequences of proteins in these tests, tags left out. Residues count along the entry.
UniProt Q63604, residues 32-821: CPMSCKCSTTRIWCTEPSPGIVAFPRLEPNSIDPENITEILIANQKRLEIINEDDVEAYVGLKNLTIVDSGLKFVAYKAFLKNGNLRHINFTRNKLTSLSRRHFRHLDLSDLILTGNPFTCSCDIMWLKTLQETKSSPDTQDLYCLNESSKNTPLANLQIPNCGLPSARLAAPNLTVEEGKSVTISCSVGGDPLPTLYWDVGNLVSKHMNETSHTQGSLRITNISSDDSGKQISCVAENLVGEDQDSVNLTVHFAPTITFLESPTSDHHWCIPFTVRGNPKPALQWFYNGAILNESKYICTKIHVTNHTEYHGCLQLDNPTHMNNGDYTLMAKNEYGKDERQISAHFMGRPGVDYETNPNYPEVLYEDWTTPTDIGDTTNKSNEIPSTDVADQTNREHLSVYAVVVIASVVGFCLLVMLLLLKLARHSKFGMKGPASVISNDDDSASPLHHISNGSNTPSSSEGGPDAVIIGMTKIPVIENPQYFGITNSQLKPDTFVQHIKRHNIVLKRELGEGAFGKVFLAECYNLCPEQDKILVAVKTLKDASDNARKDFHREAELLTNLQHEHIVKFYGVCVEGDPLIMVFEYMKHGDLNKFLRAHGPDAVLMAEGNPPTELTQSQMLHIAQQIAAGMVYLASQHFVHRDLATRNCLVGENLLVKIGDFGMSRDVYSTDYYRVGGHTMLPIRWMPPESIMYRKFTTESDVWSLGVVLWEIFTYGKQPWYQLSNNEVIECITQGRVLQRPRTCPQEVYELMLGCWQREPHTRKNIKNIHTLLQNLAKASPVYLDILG

Target: TRKB receptor (endogenous) (rat (endogenous in cultured neurons from Wistar rat embryos)) (UniProt Q63604)
Test: co-IP + ELISA

binding: binds
B1: phospholipase Cγ1 (PLCγ1), endogenous (enzyme, UniProt P10686 1-1290)
chain: MAGVGTPCANGCGPSAPSEAEVLHLCRSLEVGTVMTLFYSKKSQRPERKTFQVKLETRQITWSRGADKIEGSIDIREIKEIRPGKTSRDFDRYQEDPAFRPDQSHCFVILYGMEFRLKTLSLQATSEDEVNMWIKGLTWLMEDTLQAATPLQIERWLRKQFYSVDRNREDRISAKDLKNMLSQVNYRVPNMRFLRERLTDFEQRSGDITYGQFAQLYRSLMYSAQKTMDLPFLETNTLRTGERPELCQVSLSEFQQFLLEYQGELWAVDRLQVQEFMLSFLRDPLREIEEPYFFLDELVTFLFSKENSVWNSQLDAVCPETMNNPLSHYWISSSHNTYLTGDQFSSESSLEAYARCLRMGCRCIELDCWDGPDGMPVIYHGHTLTTKIKFSDVLHTIKEHAFVASEYPVILSIEDHCSIAQQRNMAQHFRKVLGDTLLTKPVDIAADGLPSPNQLKRKILIKHKKLAEGSAYEEVPTSVMYSENDISNSIKNGILYLEDPVNHEWYPHYFVLTSSKIYYSEETSSDQGNEDEEEPKEASGSTELHSSEKWFHGKLGAGRDGRHIAERLLTEYCIETGAPDGSFLVRESETFVGDYTLSFWRNGKVQHCRIHSRQDAGTPKFFLTDNLVFDSLYDLITHYQQVPLRCNEFEMRLSEPVPQTNAHESKEWYHASLTRAQAEHMLMRVPRDGAFLVRKRNEPNSYAISFRAEGKIKHCRVQQEGQTVMLGNSEFDSLVDLISYYEKHPLYRKMKLRYPINEEALEKIGTAEPDYGALYEGRNPGFYVEANPMPTFKCAVKALFDYKAQREDELTFTKSAIIQNVEKQDGGWWRGDYGGKKQLWFPSNYVEEMINPAILEPEREHLDENSPLGDLLRGVLDVPACQIAIRPEGKNNRLFVFSISMPSVAQWSLDVAADSQEELQDWVKKIREVAQTADARLTEGKMMERRKKIALELSELVVYCRPVPFDEEKIGTERACYRDMSSFPETKAEKYVNKAKGKKFLQYNRLQLSRIYPKGQRLDSSNYDPLPMWICGSQLVALNFQTPDKPMQMNQALFMAGGHCGYVLQPSTMRDEAFDPFDKSSLRGLEPCVICIEVLGARHLPKNGRGIVCPFVEIEVAGAEYDSTKQKTEFVVDNGLNPVWPAKPFHFQISNPEFAFLRFVVYEEDMFSDQNFLAQATFPVKGLKTGYRAVPLKNNYSEDLELASLLIKIDIFPAKENGDLSPFSGTSLRERASDASSQLFHVRAREGSFEARYQQPFEDFRISQEHLADHFDSRERRAPRRTRVNGDNRL
